The target of assay [1] is T1, endogenous Rnf25 (human (endogenous in HEK293T)) (UniProt Q96BH1).
T1 sequence: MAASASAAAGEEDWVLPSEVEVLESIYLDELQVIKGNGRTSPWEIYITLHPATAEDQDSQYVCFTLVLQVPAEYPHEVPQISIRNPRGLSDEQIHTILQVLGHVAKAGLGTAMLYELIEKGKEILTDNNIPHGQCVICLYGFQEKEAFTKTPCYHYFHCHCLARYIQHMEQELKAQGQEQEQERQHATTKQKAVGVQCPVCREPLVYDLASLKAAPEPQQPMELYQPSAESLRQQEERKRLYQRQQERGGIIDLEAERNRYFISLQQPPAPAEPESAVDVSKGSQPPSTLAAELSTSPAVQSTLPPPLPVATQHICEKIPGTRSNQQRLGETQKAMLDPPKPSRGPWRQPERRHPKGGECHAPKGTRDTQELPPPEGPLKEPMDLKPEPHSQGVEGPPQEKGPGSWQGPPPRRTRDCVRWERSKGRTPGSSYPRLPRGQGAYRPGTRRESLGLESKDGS
The experiment in a line: co-IP; HEK293T transfected with HA-Nkd1 alone; endogenous Rnf25 precipitated with anti-Rnf25, blot with anti-HA.

Amino acid sequences for entries named in this document (tags omitted). A change or cut given only in a name is not applied to a line headed by its entry.
UniProt Q9QZR0: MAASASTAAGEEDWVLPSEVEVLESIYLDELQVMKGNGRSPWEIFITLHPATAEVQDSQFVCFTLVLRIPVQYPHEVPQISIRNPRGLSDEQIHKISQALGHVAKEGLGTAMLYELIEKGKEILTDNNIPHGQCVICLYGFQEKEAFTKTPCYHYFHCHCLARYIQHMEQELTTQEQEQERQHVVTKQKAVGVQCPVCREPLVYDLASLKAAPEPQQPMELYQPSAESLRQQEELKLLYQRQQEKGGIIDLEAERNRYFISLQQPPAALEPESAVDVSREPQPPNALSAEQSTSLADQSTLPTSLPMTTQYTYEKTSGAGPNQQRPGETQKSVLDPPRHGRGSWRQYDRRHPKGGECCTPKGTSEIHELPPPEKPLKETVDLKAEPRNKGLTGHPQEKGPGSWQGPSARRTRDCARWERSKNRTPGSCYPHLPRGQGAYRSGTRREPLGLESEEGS
UniProt O35625: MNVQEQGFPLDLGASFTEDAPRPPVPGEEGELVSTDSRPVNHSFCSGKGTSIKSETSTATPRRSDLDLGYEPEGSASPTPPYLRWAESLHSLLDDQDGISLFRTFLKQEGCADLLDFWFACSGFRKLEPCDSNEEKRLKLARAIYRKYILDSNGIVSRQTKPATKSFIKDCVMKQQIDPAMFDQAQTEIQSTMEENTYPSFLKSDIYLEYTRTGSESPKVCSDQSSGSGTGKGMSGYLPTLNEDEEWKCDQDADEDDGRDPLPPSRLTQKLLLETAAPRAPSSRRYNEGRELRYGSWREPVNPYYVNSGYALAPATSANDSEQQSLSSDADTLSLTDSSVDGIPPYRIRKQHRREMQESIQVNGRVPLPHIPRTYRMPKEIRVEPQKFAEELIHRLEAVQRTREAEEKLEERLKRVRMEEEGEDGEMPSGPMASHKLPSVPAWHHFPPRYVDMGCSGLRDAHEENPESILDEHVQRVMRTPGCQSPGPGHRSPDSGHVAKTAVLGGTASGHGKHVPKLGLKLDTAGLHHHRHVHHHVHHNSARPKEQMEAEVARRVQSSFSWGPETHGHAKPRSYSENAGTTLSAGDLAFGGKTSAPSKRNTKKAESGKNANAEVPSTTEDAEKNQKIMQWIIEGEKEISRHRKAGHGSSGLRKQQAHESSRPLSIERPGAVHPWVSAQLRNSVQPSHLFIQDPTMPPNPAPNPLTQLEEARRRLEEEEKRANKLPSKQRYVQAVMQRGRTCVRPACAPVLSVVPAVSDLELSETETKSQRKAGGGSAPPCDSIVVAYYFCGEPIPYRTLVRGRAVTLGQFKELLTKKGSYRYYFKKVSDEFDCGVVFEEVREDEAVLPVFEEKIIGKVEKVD

Assay [2] addresses HA-tagged Rnf25 middle fragment (residues 113-291) containing the RING domain (not stated (mouse Rnf25 from the screen; zebrafish rnf25 cDNA cloned; human C-terminal Rnf25 used as antigen)) (UniProt Q9QZR0). The experiment in a line: co-IP; HEK293T co-transfected with two tagged proteins (HA, Myc); IP with anti-HA or anti-Myc and Protein A/G Plus-agarose, western blot; lysis buffer 20 mM Tris-HCl pH 7.4, 150 mM NaCl, 1% Triton. For orientation: Immunoblotting shows a protein as a band on a membrane.

Assay [3] concerns the target HA-tagged full-length Rnf25 (not stated (mouse Rnf25 from the screen; zebrafish rnf25 cDNA cloned; human C-terminal Rnf25 used as antigen)) (UniProt Q9QZR0). Described as above.
The target in assay [4] is HA-tagged Rnf25 N-terminal fragment (residues 1-112) (not stated (mouse Rnf25 from the screen; zebrafish rnf25 cDNA cloned; human C-terminal Rnf25 used as antigen)) (UniProt Q9QZR0). Described as above.
Assay [5] deals with HA-tagged Nkd1. Briefly: co-IP; two-step co-IP from HEK293T transfected with HA-Nkd1: first IP with C2b (Axin) or control IgG, eluate precipitated again with anti-HA or control IgG; repeated under knock-down of Dvl2.

No constants are given. Whether binding was seen depends on the method and setting. Binding seen in cells or lysates may run through a third protein. For some assays here: Binding calls can cover weak binding; strength is not graded here.

With HA-tagged Nkd1, the binding result in assay [1] is “binds”. In the case of “Myc-tagged Axin (from UniProt O35625 1-863)”, the binding entry in assay [2] is “no binding”; in assay [3] it was “binds”; in assay [4] it was “no binding”.

B1: endogenous Rnf25 (protein, UniProt Q96BH1 1-459)
chain: MAASASAAAGEEDWVLPSEVEVLESIYLDELQVIKGNGRTSPWEIYITLHPATAEDQDSQYVCFTLVLQVPAEYPHEVPQISIRNPRGLSDEQIHTILQVLGHVAKAGLGTAMLYELIEKGKEILTDNNIPHGQCVICLYGFQEKEAFTKTPCYHYFHCHCLARYIQHMEQELKAQGQEQEQERQHATTKQKAVGVQCPVCREPLVYDLASLKAAPEPQQPMELYQPSAESLRQQEERKRLYQRQQERGGIIDLEAERNRYFISLQQPPAPAEPESAVDVSKGSQPPSTLAAELSTSPAVQSTLPPPLPVATQHICEKIPGTRSNQQRLGETQKAMLDPPKPSRGPWRQPERRHPKGGECHAPKGTRDTQELPPPEGPLKEPMDLKPEPHSQGVEGPPQEKGPGSWQGPPPRRTRDCVRWERSKGRTPGSSYPRLPRGQGAYRPGTRRESLGLESKDGS
In the case of B1, in assay [5], the binding entry is “binds”.

For the origin of these results see article PMC5029668.
